Data: PMC8885737
No constants are given. Whether binding was seen depends on the method and setting. In cells and extracts the contact can be indirect. Some results given as binding are weak or reduced against the parent protein; the word gives no strength.

Molecular target: T1, RIG-I (mouse (endogenous in Raw264.7)) (UniProt Q6Q899)
T1 sequence: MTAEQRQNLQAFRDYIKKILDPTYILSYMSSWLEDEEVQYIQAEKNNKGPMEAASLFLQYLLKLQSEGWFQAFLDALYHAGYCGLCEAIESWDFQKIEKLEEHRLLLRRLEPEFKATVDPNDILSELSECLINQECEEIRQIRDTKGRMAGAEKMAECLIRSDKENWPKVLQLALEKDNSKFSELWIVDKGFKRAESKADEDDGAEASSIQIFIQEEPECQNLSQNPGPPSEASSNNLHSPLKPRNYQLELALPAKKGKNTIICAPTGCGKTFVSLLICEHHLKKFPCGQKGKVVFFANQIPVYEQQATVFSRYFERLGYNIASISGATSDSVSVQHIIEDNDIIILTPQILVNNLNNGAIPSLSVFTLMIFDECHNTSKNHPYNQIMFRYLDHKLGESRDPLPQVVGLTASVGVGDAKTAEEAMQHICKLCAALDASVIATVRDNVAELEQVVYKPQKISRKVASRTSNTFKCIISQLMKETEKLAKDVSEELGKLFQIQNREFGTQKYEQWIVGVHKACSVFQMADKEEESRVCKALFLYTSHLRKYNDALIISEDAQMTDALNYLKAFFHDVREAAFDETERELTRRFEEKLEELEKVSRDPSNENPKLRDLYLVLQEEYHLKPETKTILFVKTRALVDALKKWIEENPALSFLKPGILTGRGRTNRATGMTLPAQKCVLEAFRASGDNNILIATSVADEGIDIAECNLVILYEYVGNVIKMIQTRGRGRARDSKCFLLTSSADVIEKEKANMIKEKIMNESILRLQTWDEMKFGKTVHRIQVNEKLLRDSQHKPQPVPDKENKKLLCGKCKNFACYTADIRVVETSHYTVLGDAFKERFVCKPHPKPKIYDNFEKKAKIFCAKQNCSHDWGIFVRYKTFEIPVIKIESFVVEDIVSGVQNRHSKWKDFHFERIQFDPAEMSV
Assay: co-IP; total protein of Raw264.7 cells, control (NC) or treated with 200 uM ferrous myoglobin for 12 h, in IP lysis buffer; overnight at 4 °C with 1 ug monoclonal anti-RIG-I or anti-Caspase1 antibody and protein-A magnetic beads; blot with anti-Caspase1 or anti-RIG-I

B1: caspase1 (protein, UniProt P29452 1-402)
chain: MADKILRAKRKQFINSVSIGTINGLLDELLEKRVLNQEEMDKIKLANITAMDKARDLCDHVSKKGPQASQIFITYICNEDCYLAGILELQSAPSAETFVATEDSKGGHPSSSETKEEQNKEDGTFPGLTGTLKFCPLEKAQKLWKENPSEIYPIMNTTTRTRLALIICNTEFQHLSPRVGAQVDLREMKLLLEDLGYTVKVKENLTALEMVKEVKEFAACPEHKTSDSTFLVFMSHGIQEGICGTTYSNEVSDILKVDTIFQMMNTLKCPSLKDKPKVIIIQACRGEKQGVVLLKDSVRDSEEDFLTDAIFEDDGIKKAHIEKDFIAFCSSTPDNVSWRHPVRGSLFIESLIKHMKEYAWSCDLEDIFRKVRFSFEQPEFRLQMPTADRVTLTKRFYLFPGH
B1 was tested, and the binding was “binds”.
